Data from doi:10.1101/2025.03.10.642062.
Results are given in words; binding and its absence hold for the method and conditions named. Binding seen in cells or lysates may run through a third protein. Here binding means that the protein was enriched with, or labelled near, the bait; the list need not be complete. No binding means not detected with the bait. Where a sequence is shown, tags or fusion partners need not be part of it.

T1: 4xmyc-ING2 (Arabidopsis INHIBITOR OF GROWTH 2) (Arabidopsis) (UniProt B3H615)
T1 sequence: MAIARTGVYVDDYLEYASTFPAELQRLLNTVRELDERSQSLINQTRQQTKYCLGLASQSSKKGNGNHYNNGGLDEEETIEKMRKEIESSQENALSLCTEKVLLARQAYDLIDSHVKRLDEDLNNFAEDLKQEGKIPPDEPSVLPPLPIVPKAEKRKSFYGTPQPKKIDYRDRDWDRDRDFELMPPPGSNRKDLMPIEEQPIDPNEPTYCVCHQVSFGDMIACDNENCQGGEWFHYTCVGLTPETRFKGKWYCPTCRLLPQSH

B1: SHORT LIFE (SHL) (protein, UniProt Q9FEN9 1-228)
chain: MPKQKAPRKQLKSYKLKHINKSIQEGDAVLMRSSEPGKPSYVARVEAIETDARGSHAKVRVRWYYRPEESIGGRRQFHGAKEVFLSDHFDFQSADTIEGKCKVHSFSSYTKLDSVGNDDFFCRFEYNSTTGAFDPDRVTVFCKCEMPYNPDDLMVQCEECSEWFHPSCIGTTIEEAKKPDNFYCEECSPQQQNLHNSNSTSNNRDAKVNGKRSLEVTKSKNKHTKRPG

Target: T1, 4xmyc-ING2 (Arabidopsis INHIBITOR OF GROWTH 2) (Arabidopsis)
Experiment: affinity purification with mass spectrometry

Molecule	binding
Histone Deacetylase Complex 1 (HDC1) (Arabidopsis (endogenous in seedlings))	no binding
B1	no binding
